Experimental data taken from article PMC8581162.
No constants are given. Whether binding was seen depends on the method and setting. In cells and extracts the contact can be indirect. Some binding calls cover weakened binding; strength is not graded here.

Protein sequences, listed by entry. Tags and fused reporters are not part of them.
UniProt P27741: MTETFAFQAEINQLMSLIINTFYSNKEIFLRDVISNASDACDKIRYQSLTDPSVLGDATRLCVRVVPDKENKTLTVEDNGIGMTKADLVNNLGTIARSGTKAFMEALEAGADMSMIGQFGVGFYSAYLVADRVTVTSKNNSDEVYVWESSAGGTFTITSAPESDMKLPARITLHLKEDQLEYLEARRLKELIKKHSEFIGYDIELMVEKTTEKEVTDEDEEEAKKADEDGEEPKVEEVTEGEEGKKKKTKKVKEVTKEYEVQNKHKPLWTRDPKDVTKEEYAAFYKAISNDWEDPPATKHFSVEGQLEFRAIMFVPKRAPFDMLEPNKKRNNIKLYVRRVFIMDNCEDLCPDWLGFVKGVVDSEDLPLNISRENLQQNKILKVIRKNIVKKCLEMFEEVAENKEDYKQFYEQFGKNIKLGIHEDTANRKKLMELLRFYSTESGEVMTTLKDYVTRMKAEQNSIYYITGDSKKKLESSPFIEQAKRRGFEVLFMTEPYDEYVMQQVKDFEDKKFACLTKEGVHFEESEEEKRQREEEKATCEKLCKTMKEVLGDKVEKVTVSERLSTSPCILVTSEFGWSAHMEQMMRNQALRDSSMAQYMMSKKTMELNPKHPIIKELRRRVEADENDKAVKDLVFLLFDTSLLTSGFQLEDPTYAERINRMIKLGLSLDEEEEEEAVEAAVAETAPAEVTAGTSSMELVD

Biological target: Leishmania amazonensis Hsp90 (LHsp90; Hsp83, the ortholog of Hsp90 in trypanosomatids) (L. amazonensis (endogenous in L. amazonensis amastigotes, procyclic and metacyclic promastigotes)) (UniProt P27741)
Test: co-IP; 20 ug of telomerase-positive (DEAE semi-purified) extracts of Am, PP and MP; polyclonal anti-LbHsp90 or anti-LaTERT serum on DynaBeads protein A; 37 C for 2 h in IP buffer (25 mM TRIS-HCl pH 8.0, 2 mM EDTA, 10% glycerol, protease inhibitors); western blot with anti-LbHsp90 and anti-LaTERT sera

- binding: binds
B1: Leishmania amazonensis telomerase reverse transcriptase protein (TERT) (protein, UniProt Q2NNR6 1-1447)
chain: MSASFPSIPGFAGPLSLKAFLEEYFGLHLTFAAETASPSPRAAATAETPSAAGFRALRDVVLPPNQSFLVVVYVALHASSSPPPTTAHASPTPATPDPGCAAPPTGLGRLRQPLAHQTAVSTAHDTCVTRCNPSDRQNPFCLSSSSTGKNGNARSPWCASASWLLYTNTSHRPFTDALLRHPWRASFSACLGPAAMGFIEMYCPIVLQLEAMAGGVQVIGPALKHVALETSFSATAQLSEMKGLPPRGSASVSSRGVKRAVDTGECSAPLPLQKQRRVEAVASPPKAGRRLQREVAPSHRPCRDDSFSSPVNRAAMPATWAAALTRTDDPRTRLYSVRVSDSDCTGDGGGALPLPAGSLEAHWLPRHPRSLHRVLQAALPKRAAYGASTRHYCAGTGERGTGCTSVKNISMWHVAHVFRWLVLQPSQSGEVAFQTTSPKFDLPSYLRRFLSTDVDQCSRLDLRGAALRHTGYLEEAFRRQQQGVEPWDVQRLSTPVDVVVSYLRTLLPTLRWAPLKEANNGLFWGRDAAGSERVLDALMRAVRGWLIAGRQAVVPVSRFLDGVPVAQVPWLNGFYTTTPSLPFSDATSSASRHARRERSQVQQRVWLQFVLFLTQDILPFLLRASFTITWSSKNTHKLLFFPAFVWRRLVRREVRRTRSCHAPRSQMSLAEERTRMSGADHAALVSAPNACGGAVAAAFPSPHSAASNASAAISAPRDEWRAVRTGGALAHWSARATLATRGGGASCLYAGVRFRPDRRKLRPIAVVRSASLRSLKEMARGSPSPYSHASAIVRLLRRLGCSDADGQLPAATATLLRQVQARSRHNRRTGVHRSAHPLPPHLPHKAALQDALRCLVSGVEEQRVRDGLPRLSNLSHQDEYAELRSFCEEVRGRHAIPCEGPAKTTPAVSSASPPGATACFAPYVTLLRSDASRCYDNLPQGRVLAAVRSLVKHDAYRVLRFTVIHAVDSEATCKGGCLLRRTFTTRTIPCAEAECGFLARIPRGHIYWEEEGRTPTGPHTSAAVSRTTDASSRCGANLISGAAVRALLSEHIRHHLVVVSGGSLFEQRVGILQGSPVAMLLCDRLFSNVVDTALSSILSEHAERSLLLRRVDDVLVATTSPAAAERCLRAMQRGWPSVGYLSNPSKLTLSKACGSLVPWCGLLLHDTTLEVSVEWRRIGVLLGSLRVGDPHYVHRGDYEPLYLTQRFLAVLQLRVAPTALCGRMNSKTRQLQTFYEVGLLWTRVVLEKVQEALPVARNCCVTVLLLRPLAVCVGRLCRLLSRHQRFLAARQSACDVSAAEVRACVLTALHRTVQAKLRVLQARTVRAMTAQSGRTQRGPSLKGRRNNFCSTKASSVGRKGCEQRRRGRNRRNTRVCLRSFWWLTAAEVESQWRRSLGALYRAAPRPGEACGSTASSPSPAASASLLMEDGPLSMHARALSATRLSQT
